PubChem BioAssay AID1671195, Yale University – 2021

Purpose: 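Knockdowns that increase or decrease uptake of fluorescent LDL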 (primary screen)
System: human Huh7 hepatoma cells
Knock-down reagent: siRNA pool against human genes, 18 nM
Timing: about 2 to 2.5 days of knockdown, then 8 h LDL uptake
Conditions: DiI-labelled LDL at 30 µg/ml for 8 h, in lipoprotein-deficient serum medium
Measured: 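Fluorescent LDL signal imaged in cells, scaled to the plate median, robust z-score for each replicate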
Reading the numbers: robust z-score: higher = more LDL uptake after knockdown
Call rule: 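Active when two or more replicates show a robust z-score above 2 or below -2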
The deposit covers about 22,000 reagents; this is an unselected part. About 1,510 of them (6.9%) were called active. 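Active includes knockdowns raising or lowering LDL uptake; positive z-scores mean more uptake, negative mean less.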

gene symbol,"robust z-score, replicate 1","robust z-score, replicate 2","robust z-score, replicate 3",activity call
TTC16,-0.469,0.406,0.0319,inactive
LOC442140 (retired record),-1.46,-0.873,-1,inactive
PYM1,0.153,0.467,0.789,inactive
UBE2J1,-0.665,-2.02,-1.09,inactive
PROSER3,0.0371,1.74,0.303,inactive
LOC400675 (retired record),-1.94,-2.02,-1.88,active
LOC389188 (retired record),0.245,-0.0806,-0.973,inactive
GNPDA2,-0.0255,0.885,-0.225,inactive
PAFAH1B3,-1.93,-0.157,-0.098,inactive

Just “robust z-score, replicate 2” (3 entries from above):
PYM1 = 0.467
UBE2J1 = -2.02
PROSER3 = 1.74

Further entries follow:
gene symbol,"robust z-score, replicate 1","robust z-score, replicate 2","robust z-score, replicate 3",activity call
TIMM50,0.154,-0.418,-0.377,inactive
PITHD1,-1.36,-0.699,-0.172,inactive
LOC441709 (retired record),-1.12,-0.747,-0.536,inactive
CACFD1,1.11,1.07,1.43,inactive
GOLT1B,0.444,-0.761,-2.22,inactive
TGM2,-0.876,-0.63,-0.583,inactive
IL27,-0.632,-0.53,-0.972,inactive
SDR39U1,0.185,0.662,-0.0598,inactive
BARHL1,0.526,0.93,1.43,inactive
ATP8B3,1.21,0.249,0.983,inactive
CCDC121,-1.13,-0.744,-1.17,inactive
IVL,-1.8,-2.35,-1.86,inactive
FAM9C,2.26,3.02,1.89,active
NKX2-6,-1.47,-1.55,-1.24,inactive
PCIF1,0.096,0.243,0.683,inactive
RPS9,-0.974,-1.33,-0.0346,inactive
OR52E8,0.947,1.13,1.14,inactive
WFDC12,-2.09,-2.17,-2.3,active
FAM124B,1.31,0.313,0.813,inactive
